Like-named read-outs stand apart in the source and are kept apart here. Further values from the same series stand in other lists.
Method: In this study the stabilty of FMdC glutamate and glycine buffers at pH 8.5 to 9.5 was evaluated at various storage conditions (5°, 25°, 35°, 45°, and 55° C.). FMdC solutions were made up at 1 mg/mL in 7.1 mg/mL monosodium glutamate monohydrate (38 mM) or 2.8 mg/mL glycine (37 mM) and pH adjusted to target with sodium hydroxide. Solution samples were placed in stoppered glass vials and stored at the various temperatures. […] Detention was by UV at 268 nm.
The higher-temperature data can be evaluated further by Arrhenius analysis to predict shelf lives at lower temperatures. First-order rate constants are determined by fitting the concentration and time data to an equation of the form C(t)=C(0)·exp (−k·t), where C(t) is the concentration at time t, C(0) is the concentration at time 0, t is the time, and k is the first-order rate constant. The rate constants are in turn fitted to an equation of the form k (T)=A·exp (−Ea/RT), where k(T) is the rate constant at temperature T, Ea is the energy of activation, R is the gas constant, T is the absolute temperature (in ° K), and A is a constant.

[1] = Glutamate pH 8.5 buffer, 5° C., 0 weeks
[2] = Glutamate pH 9.0 buffer, 5° C., 0 weeks
[3] = Glutamate pH 9.0 buffer, 55° C., 16 weeks
[4] = Glutamate pH 9.5 buffer, 5° C., 0 weeks
[5] = Glutamate pH 9.5 buffer, 55° C., 16 weeks
[6] = Glycine pH 9.0 buffer, 5° C., 0 weeks
[7] = Glycine pH 9.0 buffer, 55° C., 16 weeks

In the case of Nc1ccn([C@@H]2O[C@H](CO)[C@@H](O)/C2=C\F)c(=O)n1 [FMdC, (E)-2′-deoxy-2′-(fluoromethylene)cytidine], the FMdC [1] is reported as 1.00 mg/mL, the pH [1] is reported as 8.50 and the pH (Glutamate pH 8.5 buffer, 45° C., 16 weeks) is reported as 8.28. It also gave a pH (Glutamate pH 8.5 buffer, 45° C., 24 weeks) of 5.75, a pH (Glutamate pH 8.5 buffer, 55° C., 0 weeks) of 8.50 and a pH (Glutamate pH 8.5 buffer, 55° C., 4 weeks) of 7.56. For the same compound, the FMdC [2] was 1.01 mg/mL, the pH [2] was 9.00 and the pH (Glutamate pH 9.0 buffer, 45° C., 16 weeks) was 9.06. It also gave a pH (Glutamate pH 9.0 buffer, 45° C., 24 weeks) of 9.08, a pH (Glutamate pH 9.0 buffer, 55° C., 0 weeks) of 9.00 and a pH (Glutamate pH 9.0 buffer, 55° C., 4 weeks) of 9.01. For the same compound, the FMdC [3] was 0.60 mg/mL, the pH [3] was 8.44 and the FMdC [4] was 1.00 mglmL. The pH [4] was 9.50, the pH (Glutamate pH 9.5 buffer, 45° C., 16 weeks) was 9.68 and the pH (Glutamate pH 9.5 buffer, 45° C., 24 weeks) was 9.62. For the same compound, the pH (Glutamate pH 9.5 buffer, 55° C., 0 weeks) was 9.50, the pH (Glutamate pH 9.5 buffer, 55° C., 4 weeks) was 9.62 and the FMdC [5] was 0.69 mglmL. For the same compound, the pH [5] was 9.97, the FMdC [6] was 1.00 mg/mL and the pH [6] was 9.00. The pH (Glycine pH 9.0 buffer, 45° C., 4 weeks) was 9.30, the pH (Glycine pH 9.0 buffer, 45° C., 16 weeks) was 9.29 and the pH (Glycine pH 9.0 buffer, 45° C., 24 weeks) was 9.31. For the same compound, the pH (Glycine pH 9.0 buffer, 55° C., 0 weeks) was 9.00, the pH (Glycine pH 9.0 buffer, 55° C., 4 weeks) was 9.27 and the FMdC (Glycine pH 9.0 buffer, 55° C., 8 weeks) was 0.79 mg/mL. The FMdC [7] was 0.63 mg/mL and the pH [7] was 8.92.
